No constants are given. Whether binding was seen depends on the method and setting. In cells and extracts the contact can be indirect. A result given as binding can be weak or reduced; the word gives no strength. Sequences can lack the tags named with a protein.
Molecular target: p85 (PI3K p85) (murine (endogenous in murine FD-Fms cells))
Assay: co-immunoprecipitation and immunoblot from M-CSF-stimulated FD-Fms(mGab3V5) cells

- binding: binds
B1: V5-tagged murine Gab3 (mGab3V5), tyrosine phosphorylated after M-CSF stimulation (protein, UniProt Q8BSM5 1-595, looked up, not shown: small tags and cut ends)
chain: MSTGDTVCMGWLIKSPPERKLQRYAWRKRWFVLRRGRMSGNPDVLEYYRNKHSNKPIRVIDLSECTVWKHAGPGFIRKEFQKNFVFIVKTTSRTFYLVAKTEEEMQVWVHSISQVCNFSHLEDGADSMESLSHMPSSFQPSPASSLHTVHVANSALLKDDRNTNSVVTEETRRESEFLFLPDYLILSNCETGRLHHASLPTRCDSWSNSNHSLAQTSFDDVFLDGLQPFISNNLVHPLHHGKVSQDFPSIRPQASLIWNREINGPSRNLMSSSPLLESSLNPTVHVEEKQVSLPSGVKELNIMSNTPPPRPPKPSYLSEQRQDQPLLTGHSSNKKPGYTMVPRRISLSGLDHVGSWKGDVQSQSLRHRDKRLSLNLPCKFSPIYPTASPSAEDSYVPMSPKGTASELRPHCSQDDYIPMSSSMLPELPADLEPPPVNRNLKPQRKSRPPPLDSRNLSTIQEHTSLTRTYTVPCNRTSFLSPQRNGINCARLFSTPSEEEEEEEEEEEEEEEEEKYIQMEEYGTVSSLSRSALSWTKKFSLDYLALDFNSTSPAPVQKKLLLSEEQRVDYVQVDEQKTQALRSTKQEWTDERQSKV
modifications: phosphotyrosine; sites not stated

Source: patent US20030036505A1
